Assay results published in PMC10147604.
Numbering of substitutions follows the chain as printed. These are yes or no findings as the source states them, for the method shown. In cells and extracts the contact can be indirect. Some results given as binding are weak or reduced against the parent protein; the word gives no strength. Sequences can lack the tags named with a protein.

Chains of the proteins cited; added tags and fusions are not shown. Lines headed by an entry give the natural chain unless they say otherwise; changes in a name come on top.
UniProt Q93009: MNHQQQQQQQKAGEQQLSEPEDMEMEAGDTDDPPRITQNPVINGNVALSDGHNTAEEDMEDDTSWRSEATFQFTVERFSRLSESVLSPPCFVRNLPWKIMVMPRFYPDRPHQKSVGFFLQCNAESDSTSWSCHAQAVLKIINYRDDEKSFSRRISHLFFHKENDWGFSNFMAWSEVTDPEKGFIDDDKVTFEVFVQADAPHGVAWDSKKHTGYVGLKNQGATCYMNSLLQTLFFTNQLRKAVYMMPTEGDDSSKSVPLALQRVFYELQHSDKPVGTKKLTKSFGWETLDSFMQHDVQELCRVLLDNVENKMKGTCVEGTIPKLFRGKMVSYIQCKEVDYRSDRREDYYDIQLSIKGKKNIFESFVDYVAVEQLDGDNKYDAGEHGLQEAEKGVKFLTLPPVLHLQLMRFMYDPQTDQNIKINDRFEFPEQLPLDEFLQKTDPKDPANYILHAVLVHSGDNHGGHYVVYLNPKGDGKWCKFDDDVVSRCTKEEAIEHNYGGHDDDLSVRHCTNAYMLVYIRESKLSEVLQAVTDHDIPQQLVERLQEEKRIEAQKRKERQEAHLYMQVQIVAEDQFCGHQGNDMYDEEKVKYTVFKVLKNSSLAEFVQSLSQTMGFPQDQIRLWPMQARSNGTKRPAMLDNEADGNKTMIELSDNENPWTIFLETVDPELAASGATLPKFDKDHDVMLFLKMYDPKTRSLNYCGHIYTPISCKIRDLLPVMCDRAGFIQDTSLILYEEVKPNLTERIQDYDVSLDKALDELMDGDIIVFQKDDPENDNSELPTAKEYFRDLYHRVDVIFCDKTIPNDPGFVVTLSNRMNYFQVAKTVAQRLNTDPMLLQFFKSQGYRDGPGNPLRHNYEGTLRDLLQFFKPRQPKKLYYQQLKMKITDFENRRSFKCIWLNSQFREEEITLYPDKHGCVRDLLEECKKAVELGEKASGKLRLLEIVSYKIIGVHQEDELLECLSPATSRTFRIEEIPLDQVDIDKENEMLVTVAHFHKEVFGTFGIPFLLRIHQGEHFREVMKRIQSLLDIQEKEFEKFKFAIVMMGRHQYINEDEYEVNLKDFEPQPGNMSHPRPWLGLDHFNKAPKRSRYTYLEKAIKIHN

Experiments:
[1] = target: T1, N-terminally HA-tagged NGN3 (HA-NGN3^WT) (UniProt P70661); assay: co-IP; HA-NGN3 (wildtype or mutant) precipitated with anti-HA magnetic beads from HEK293A lysates, overnight at 4 °C; cells treated with 1 µM MG132 for 6 h; NP-40 buffer; USP7 detected by immunoblot
T1 sequence: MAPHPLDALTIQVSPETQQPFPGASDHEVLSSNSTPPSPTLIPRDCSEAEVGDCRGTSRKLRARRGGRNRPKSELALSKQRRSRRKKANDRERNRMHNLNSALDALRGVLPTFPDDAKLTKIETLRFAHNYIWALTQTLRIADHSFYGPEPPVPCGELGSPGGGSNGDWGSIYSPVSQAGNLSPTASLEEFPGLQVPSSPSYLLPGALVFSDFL

HA-NGN3^6SA = target: T2, HA-NGN3^6SA (UniProt P70661); assay: as above
T2 sequence: T1 sequence with S14A, S38A, S160A, S174A, S183A, S199A

catalytically inactive USP7 (Flag-USP7^C223A) (from UniProt Q93009 1-1102) (enzyme)
binding [1]: binds

Flag-tagged wild-type USP7 (Flag-USP7^WT) (from UniProt Q93009 1-1102) (enzyme)
binding [1]: binds | binding (HA-NGN3^6SA): binds

endogenous USP7 (from UniProt Q93009 1-1102) (enzyme)
binding [1]: binds
